The results in this text go back to patent publication US5340788A, “Diphenylsulfone derivatives and heat sensitive recording materials” (Nippon Soda Co., Ltd., priority 1990, dated 1994).

The structures appear in SMILES notation.

A short description of this series: Plasticizer proofness of colored image (polyvinyl chloride film contact). Particulars: for Concentration of colored image, Remained %: after/before exposing; for Concentration of colored image, Remained % / Concentration of colored image, After exposing: PVC film contact, dark, 25° C., 10 days; for Concentration of colored image, Before exposing / Concentration of colored image, After exposing: color density; for Concentration of colored image, Before exposing: Macbeth RD-514, filter #106, before PVC film contact; for Concentration of colored image, After exposing: filter #106.

Regarding `CC1(COc2ccc(S(=O)(=O)c3ccc(OCc4ccccc4Cl)cc3)cc2)CO1` (stereo not drawn) [(3)], the “Concentration of colored image, Remained %” value (“Concentration … Remained %” for short) was determined as 45%; the “Concentration of colored image, Before exposing” value (“Concentration … Before exposing” below) worked out at 0.76; the “Concentration of colored image, After exposing” value (“Concentration … After exposing” below) is 0.34.

As for `CC1(COc2ccc(S(=O)(=O)c3ccc(OCc4ccc(Cl)cc4)cc3)cc2)CO1` (stereo not drawn) [(4)], the “Concentration … Remained %” value was 45%; the “Concentration … Before exposing” value is recorded as 0.77; the “Concentration … After exposing” value worked out at 0.35.

As for `Cc1ccc(COc2ccc(S(=O)(=O)c3ccc(OCC4(C)CO4)cc3)cc2)cc1` (stereo not drawn) [(6)], the “Concentration … Remained %” value is 65%; the “Concentration … Before exposing” value came to 0.83; the “Concentration … After exposing” value is recorded as 0.53.

Consider `C=CCOc1ccc(S(=O)(=O)c2ccc(OCC3CO3)cc2)cc1` (stereo not drawn) [(7)], for which the “Concentration … Remained %” value is given as 60%; the “Concentration … Before exposing” value is 0.89; the “Concentration … After exposing” value amounted to 0.56.

Regarding `CC1(COc2ccc(S(=O)(=O)c3ccc(OCc4ccccc4)cc3)cc2)CO1` (stereo not drawn) [compound (1), 4-benzyloxy-4'-(2-methylglycidyloxy)diphenylsulfone], the “Concentration … Remained %” value came to 70%; the “Concentration … Before exposing” value came to 0.77; the “Concentration … After exposing” value is 0.54.

Turning to `Cc1ccc(COc2ccc(S(=O)(=O)c3ccc(OCC4CO4)cc3)cc2)cc1` (stereo not drawn) [compound (5), 4-(4-methylbenzyloxy)-4'-glycidyloxydiphenylsulfone], the “Concentration … Remained %” value stood at 64%; the “Concentration … Before exposing” value came to 0.88; the “Concentration … After exposing” value came to 0.56.
